# In PubChem BioAssay AID652054 (National Center for Advancing Translational Sciences (NCATS), 2013):
# By UniProt entry, the sequences of proteins in these tests, tags left out.
# UniProt P35462, whole entry, looked up: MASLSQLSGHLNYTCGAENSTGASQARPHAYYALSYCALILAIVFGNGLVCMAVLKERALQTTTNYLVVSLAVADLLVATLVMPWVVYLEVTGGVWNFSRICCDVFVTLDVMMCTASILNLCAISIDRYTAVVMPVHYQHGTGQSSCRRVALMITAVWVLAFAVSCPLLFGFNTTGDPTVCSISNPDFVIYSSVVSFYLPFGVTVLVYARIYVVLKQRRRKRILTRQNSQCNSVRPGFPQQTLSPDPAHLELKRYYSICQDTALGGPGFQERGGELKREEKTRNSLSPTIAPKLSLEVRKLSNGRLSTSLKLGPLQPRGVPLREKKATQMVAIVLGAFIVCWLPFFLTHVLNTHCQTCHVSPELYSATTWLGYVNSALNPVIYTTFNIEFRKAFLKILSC
# In all, about 360,000 compounds went through this assay and about 9,100 (2.5%) were called active. The inconclusive results got no clear call from the source; some entries with a clear call stand among them for comparison. Rule as the data show it: active = max response below about -50%; inconclusive = no clear call, values can overlap the other calls; inactive = above that.
# Target: D(3) dopamine receptor (Homo sapiens) (UniProt P35462)
# Assay: qHTS of D3 Dopamine Receptor Antagonist: qHTS
# Conditions: D3R cells, DiscoveRx beta-arrestin luminescence, antagonist mode; stronger effect = lower value
# Method in brief: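 Cells plated overnight at 1500 cells/well, then exposed to library compounds with dopamine controls for 90 minutes at 37 degrees C. DiscoveRx reagent added for 30–60 minutes at room temperature; luminescence read, quantitative HTS format.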
# % is scaled to controls: 0 for no effect and ±100 for the full control effect.
row,Structure (SMILES),"max response, negative = inhibition"
1,O=S(=O)(c1ccccc1)N1CCN(C2CCN(Cc3ccccc3)CC2)CC1,inconclusive: -46.5%
2,O=C(CN1CCOCC1)NCc1ccccc1,inconclusive: -33.5%
3,O=C(c1ccc([N+](=O)[O-])cc1)N(Cc1ccc(Cl)cc1)N1C(=O)CCCC1=O,inconclusive: -38.5%
4,Cc1ccccc1CNC(=O)c1ccccc1SCC(=O)NCc1ccco1,inactive: 3.4%
5,C[C@@H]1CN([C@H](C)CO)C(=O)CCCn2nncc2CO[C@H]1CN(C)S(=O)(=O)c1ccc(F)cc1,inconclusive: -34.3%
6,CC1C(=O)O[C@@H]2C[C@@H](C)[C@@H]3CCC(=O)[C@@]3(C)[C@@H](O)[C@H]12 (stereo partly drawn),inconclusive: -30.7%
7,O=C(NC1CCCC1)C1c2ccccc2OCC(=O)N1Cc1cccnc1 (stereo not drawn),inconclusive: -34.8%
8,COc1ccccc1-c1cc(C(=O)NCCCn2ccnc2)no1,inconclusive: -40.3%
9,Cn1cccc1/C=N/N1CCN(Cc2ccc(Cl)cc2)CC1,inactive: -27.4%
11,Cc1cc(C(=O)NC2CCCc3c2cnn3-c2ccccc2F)nc(C)n1 (stereo not drawn),inconclusive: -30.4%
12,O=C(NCCC1=CCCCC1)C1CCN(C(=O)c2ccc(Cl)cc2)CC1,active: -131%
13,Cc1cc(C)n(-c2nc(N(c3ccccc3)c3ccccc3)nc(-n3nc(C)cc3C)n2)n1,inconclusive: -43.5%
14,Cc1ccc(S(=O)(=O)N2CCC(C(=O)N3CCN(Cc4ccccc4)CC3)CC2)cc1,inconclusive: -45.4%
15,CCOC(=O)c1c(-c2ccccc2)csc1NC(=O)C(C)NCCCN1CCOCC1 (stereo not drawn),inactive: -13.1%
16,COc1ccc(C[C@H]2CN3C(=NC[C@@H]3C(C)C)N2CCNC(=O)CCC2CCCCC2)cc1,inconclusive: -49.3%
17,COC(=O)CCc1sc(Nc2ccc(Br)cc2)nc1-c1ccc(OC)cc1,inconclusive: -35.7%
18,CCCc1cc(=O)[nH]c(SCC(=O)N2CCN(c3ccc(F)cc3)CC2)n1,inconclusive: -41.8%
19,COc1ccc(CC2(CO)CCN(Cc3cnn(-c4ccccc4)c3)CC2)cc1,inconclusive: -37.6%
20,CC1CCC/C(=C\Nc2ccc(O)cc2)C1=O (stereo not drawn),inconclusive: -36.7%
21,CC(C(=O)N(C)C1CCS(=O)(=O)C1)N1C(=O)/C(=C/c2ccc(F)cc2)SC1=S (stereo not drawn),inactive: -10.4%
22,COCCCNC(=S)NNC(=O)c1cc(-c2ccncc2)nc2ccccc12,inactive: -18.8%

row,Structure (SMILES),"max response, negative = inhibition"
1,CNC(=S)N1CCC(C(=O)c2ccc(Cl)cc2)CC1,inactive: 67.1%
2,Cc1noc(C)c1S(=O)(=O)N1CCC(C(=O)c2ccccc2)CC1,inconclusive: -31.5%
3,CC(=O)N1c2ccc(S(=O)(=O)N3CCCCC3)cc2CC1C (stereo not drawn),inactive: -14.6%
4,Cc1cc(C)c2nc(C)cc(Nc3ccc(C(=O)N(C)C)cc3)c2c1,inactive: 1.42%
5,Cc1ccc(CNC(=O)C2CC(=O)N(C3CCCCCC3)C2)cc1 (stereo not drawn),inactive: -5.11%
6,O=C(NC1CCCCC1)C(c1ccncc1)N(Cc1ccccc1)C(=O)c1ccc(-c2ccccc2)[nH]1 (stereo not drawn),inconclusive: -38.7%
7,O=C(O)CN=C(NS(=O)(=O)c1ccc(Cl)cc1)c1ccccc1,inconclusive: -35.3%
8,COc1ccc2nc(N(Cc3ccccc3)C(=O)CCNC(C)=O)sc2c1,inactive: 0.216%
9,CCn1c(CN2CCN(c3ccc(Cl)cc3)CC2)nc2ccccc21,inconclusive: -46.9%
10,COc1ccc(/C=N\NC(=O)c2ccccc2Cl)cc1COc1c(F)c(F)c(F)c(F)c1F,inactive: -12.5%
11,Cc1ccc2c(CC(=O)Nc3ccc4nc(N5CCOCC5)sc4c3)coc2c1,inactive: -5.13%
12,O=[N+]([O-])c1cccc(C2CC(c3ccccc3)=NN2c2ccccc2)c1 (stereo not drawn),inconclusive: -41.4%
13,CCOC(=O)CCCCNCc1ccccc1,active: -69.9%
14,CC1(C)CC(=O)C=C(N2CCNCC2)C1,inconclusive: -39.4%
15,CC(C)(C)NC(=O)Nc1cccc(Cl)c1Cl,inactive: -10.3%
16,O=C(c1cnn2c(C(F)F)cc(C3CC3)nc12)N1CCOCC1,inconclusive: -44.5%
17,Nc1ccn([C@@H]2O[C@H](CNC(=O)[C@@H](Cc3cccnc3)NC=O)[C@@H](O)[C@H]2O)c(=O)n1,inactive: -15.5%
18,O=C1COc2ccc(S(=O)(=O)N3CCN(c4ccccc4)CC3)cc2N1,inactive: 5.87%
19,CCOc1ccc(-c2nc(C#N)c(N3CCN(C)CC3)o2)cc1,inconclusive: -31.7%
20,CCCc1cc(=O)oc2cc(C)cc(OCc3nn[nH]n3)c12,inactive: 23.1%
21,CC1CC(C)CN(CCCOc2ccccc2[N+](=O)[O-])C1 (stereo not drawn),inconclusive: -48%
22,Cc1ccc(C(O)(CNCc2ccccc2)c2ccccc2)cc1 (stereo not drawn),inconclusive: -37.4%

row,Structure (SMILES),"max response, negative = inhibition"
1,O=c1nc(-c2ccccc2)cn[nH]1,inconclusive: -30.3%
2,CCOc1cc(CNCc2ccncc2)cc(Cl)c1OC,inconclusive: -42.1%
3,CNc1cccc(-c2ccccc2CO)n1,inconclusive: -33.5%
4,CN1CCN(C(=O)/C=C/c2cn(-c3ccccc3)nc2-c2ccc3c(c2)OCCO3)CC1,inactive: 5.07%
5,Cc1ccc(Oc2nnc(-c3cccs3)c3ccccc23)cc1C,inconclusive: -39.2%
6,COc1ccc(C)cc1NC(=O)CCN1CCN(c2ccccc2)CC1,inconclusive: -41.4%
7,CCn1c(COc2ccc3c(c2)OCO3)nnc1SCC(=O)c1ccc(Cl)cc1,inconclusive: -34.7%
8,Cn1cccc1/C=N/NC(=O)CNc1ccc2ccccc2c1,inconclusive: -43.3%
9,CC(C)c1ccc(S(=O)(=O)/N=C2\C=C(NS(=O)(=O)c3ccccc3)C(=O)c3ccccc32)cc1,inconclusive: -48.7%
10,COc1ccc(N=C2S/C(=C\c3ccc(Cl)c([N+](=O)[O-])c3)C(=O)N2CCN(C)C)cc1,active: -128%
11,CC(=O)c1ccc([C@H]2C[C@@]34CN(C(=O)OC(C)(C)C)S(=O)(=O)[C@H]3C[C@H]2O4)cc1,inconclusive: -33%
12,O/N=C(\c1ccc(Cl)cc1Cl)c1ncc(C(F)(F)F)cc1Cl,inconclusive: -36%
13,Cc1ccc(C(=O)NNC(=O)CSc2nnc(-c3ccncc3)n2C)cc1,active: -75.4%
14,Cc1cc(=O)oc2cc(NC(=O)CCOc3ccccc3)ccc12,inconclusive: -30.8%
15,COc1ccc(C(=O)n2nc(C)cc2C)cc1OC,inconclusive: -37.3%
16,CCN1C(=O)/C(=C/N(C)C)c2ccccc21,inconclusive: -46.8%
17,Cc1ccc(S(=O)(=O)N(C)c2ccc(C(=O)N(CC(C)C)C3CCS(=O)(=O)C3)cc2)cc1 (stereo not drawn),inactive: 17%
18,CC1(C)CC(=O)C(C=Nc2cc(C(=O)c3ccccc3)ccc2N)=C(O)C1,active: -125%
19,N#Cc1c(N2CCCC2)nc(N)c2c(N)nc(N3CCCC3)cc12,inconclusive: -41.7%
20,Cc1ccc(Nc2n[nH]c(=S)s2)cc1,active: -51.1%
21,O=C(C1=C[C@@H](c2ccc(C(F)(F)F)cc2)C[C@@H](OCc2ccc(CO)cc2)O1)N1CCN(Cc2ccc3c(c2)OCO3)CC1,inconclusive: -35.2%
22,Cc1cc(-c2c(C)[nH]n(-c3ccccc3)c2=O)n[nH]1,inconclusive: -38.2%

row,Structure (SMILES),"max response, negative = inhibition"
1,COc1ccc(S(=O)(=O)NCc2ccccn2)cc1NC(=O)c1ccc(C)cc1,inconclusive: -31.8%
2,CCOC(=O)C1CCCN(Cc2cccs2)C1 (stereo not drawn),inconclusive: -44.7%
3,COc1ccc(-c2cnc3c(NC(C)=O)cc(-c4ccc(S(C)(=O)=O)cc4)cn23)cc1OC,inactive: 189%
4,CCCC(=O)Nc1ccc2nn(-c3ccc(OC)cc3)nc2c1,inactive: 19.2%
5,Cc1cc(C(=O)CSc2nncs2)c(C)n1-c1c(C)n(C)n(-c2ccccc2)c1=O,active: -94.8%
6,Clc1ccc(C[n+]2csc3ccccc32)cc1,inconclusive: -45.2%
7,O=C(Nc1cnc2ccccc2c1)N1CCOCC1,active: -66.7%
8,COc1ccc(-c2csc(N(CCCN(C)C)C(=O)c3ccc(C)cc3)n2)cc1,inactive: 4.75%
9,Fc1ccc(-c2nnc(CN3CCN(c4ncc(C(F)(F)F)cc4Cl)CC3)o2)cc1,inconclusive: -38.5%
10,CC1=NN(/C(=N\c2nnc(C)s2)Nc2ccccc2)[C@H](c2cccc3ccccc23)S1,inconclusive: -35.6%
11,COc1ccc(Cl)cc1NC(=S)NCCc1c[nH]c2ccccc12,inconclusive: -44.9%
12,COc1cccc(/C=N/n2cnnc2)c1OCc1ccccc1,inconclusive: -41%
13,C[C@H](NC(=O)c1ccco1)C(=O)Nc1ccc(S(=O)(=O)N2CCCC2)cc1,inconclusive: -35.6%
14,COc1cc(C)cc(C(=O)C=Cc2ccccc2)c1O,inconclusive: -37.4%
15,CC(=O)c1ccc(NC(=O)c2ccc(S(=O)(=O)N3CCCC3)cc2)cc1,inconclusive: -32.1%
16,CC(C)c1nnc(SCC(=O)NCc2ccc3c(c2)OCO3)n1C,inconclusive: -30.8%
17,Cc1ccc(C(=O)c2ccc(O)cc2)cc1C,inconclusive: -33.1%
18,CCN(CC)C(=O)C1=C(C)N(CCCN2CCCC2=O)C(=O)C(CC(=O)NCc2cccc3ccccc23)C1 (stereo not drawn),inactive: 19%
19,Cc1ccc2[nH]c3c(c2c1)CCCC3NC(=O)CCl (stereo not drawn),inconclusive: -34%
20,Cc1ccc(O)c(CNc2nc3ccccc3[nH]2)c1,inconclusive: -32.4%
21,COc1ccc(/C=N/NC(=O)c2cccc([N+](=O)[O-])c2)cc1OC(=O)c1ccccc1,inconclusive: -44.9%
22,C=C(C(=O)c1ccccc1)C(C(=C)C(=O)c1ccccc1)c1ccc(OC)cc1,inconclusive: -37.9%

# Reformatted tab-delimited: entries from further up
row	Structure (SMILES)	max response, negative = inhibition
15	COc1ccc(C(=O)n2nc(C)cc2C)cc1OC	inconclusive: -37.3%
16	CCN1C(=O)/C(=C/N(C)C)c2ccccc21	inconclusive: -46.8%
17	Cc1ccc(S(=O)(=O)N(C)c2ccc(C(=O)N(CC(C)C)C3CCS(=O)(=O)C3)cc2)cc1 (stereo not drawn)	inactive: 17%
18	CC1(C)CC(=O)C(C=Nc2cc(C(=O)c3ccccc3)ccc2N)=C(O)C1	active: -125%
19	N#Cc1c(N2CCCC2)nc(N)c2c(N)nc(N3CCCC3)cc12	inconclusive: -41.7%
20	Cc1ccc(Nc2n[nH]c(=S)s2)cc1	active: -51.1%
21	O=C(C1=C[C@@H](c2ccc(C(F)(F)F)cc2)C[C@@H](OCc2ccc(CO)cc2)O1)N1CCN(Cc2ccc3c(c2)OCO3)CC1	inconclusive: -35.2%
22	Cc1cc(-c2c(C)[nH]n(-c3ccccc3)c2=O)n[nH]1	inconclusive: -38.2%
1	COc1ccc(S(=O)(=O)NCc2ccccn2)cc1NC(=O)c1ccc(C)cc1	inconclusive: -31.8%
2	CCOC(=O)C1CCCN(Cc2cccs2)C1 (stereo not drawn)	inconclusive: -44.7%
3	COc1ccc(-c2cnc3c(NC(C)=O)cc(-c4ccc(S(C)(=O)=O)cc4)cn23)cc1OC	inactive: 189%
4	CCCC(=O)Nc1ccc2nn(-c3ccc(OC)cc3)nc2c1	inactive: 19.2%
5	Cc1cc(C(=O)CSc2nncs2)c(C)n1-c1c(C)n(C)n(-c2ccccc2)c1=O	active: -94.8%
6	Clc1ccc(C[n+]2csc3ccccc32)cc1	inconclusive: -45.2%
7	O=C(Nc1cnc2ccccc2c1)N1CCOCC1	active: -66.7%
8	COc1ccc(-c2csc(N(CCCN(C)C)C(=O)c3ccc(C)cc3)n2)cc1	inactive: 4.75%
10	CC1=NN(/C(=N\c2nnc(C)s2)Nc2ccccc2)[C@H](c2cccc3ccccc23)S1	inconclusive: -35.6%
11	COc1ccc(Cl)cc1NC(=S)NCCc1c[nH]c2ccccc12	inconclusive: -44.9%
12	COc1cccc(/C=N/n2cnnc2)c1OCc1ccccc1	inconclusive: -41%
13	C[C@H](NC(=O)c1ccco1)C(=O)Nc1ccc(S(=O)(=O)N2CCCC2)cc1	inconclusive: -35.6%
14	COc1cc(C)cc(C(=O)C=Cc2ccccc2)c1O	inconclusive: -37.4%
16	CC(C)c1nnc(SCC(=O)NCc2ccc3c(c2)OCO3)n1C	inconclusive: -30.8%
17	Cc1ccc(C(=O)c2ccc(O)cc2)cc1C	inconclusive: -33.1%
18	CCN(CC)C(=O)C1=C(C)N(CCCN2CCCC2=O)C(=O)C(CC(=O)NCc2cccc3ccccc23)C1 (stereo not drawn)	inactive: 19%
19	Cc1ccc2[nH]c3c(c2c1)CCCC3NC(=O)CCl (stereo not drawn)	inconclusive: -34%
21	COc1ccc(/C=N/NC(=O)c2cccc([N+](=O)[O-])c2)cc1OC(=O)c1ccccc1	inconclusive: -44.9%
22	C=C(C(=O)c1ccccc1)C(C(=C)C(=O)c1ccccc1)c1ccc(OC)cc1	inconclusive: -37.9%
